Results reported in article PMC11376533.
Results are given in words; binding and its absence hold for the method and conditions named.

The chains behind the UniProt entries cited, without tags or fusion partners. Where a name states a change or a piece, a line headed by the entry shows the natural chain unless it says otherwise. A line that says so, or that is headed by a name, gives the form on record, which may keep a tag or linker.
Δ9N_FGF2 D28E/C78L/C96I/S137P (P09038-2, form named): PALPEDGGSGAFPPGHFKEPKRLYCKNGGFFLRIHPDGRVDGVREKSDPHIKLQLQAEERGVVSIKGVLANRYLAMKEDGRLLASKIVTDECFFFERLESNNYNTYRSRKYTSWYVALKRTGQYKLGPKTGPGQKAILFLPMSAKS
Δ9N_FGF2 D28E/C78I/C96I/S137P (P09038-2, form named): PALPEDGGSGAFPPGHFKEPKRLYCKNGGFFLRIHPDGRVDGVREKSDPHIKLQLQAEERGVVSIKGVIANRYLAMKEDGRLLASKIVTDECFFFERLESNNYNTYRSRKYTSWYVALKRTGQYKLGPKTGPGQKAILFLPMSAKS

Key:
[1] = target: Δ9N_FGF2 D28E/C78L/C96I/S137P (human) (UniProt P09038); assay: SDS-PAGE; 0.5 mg/mL protein in 1X PBS pH 7.4, incubated at 45 °C for 7 days, soluble fraction after centrifugation on 15% SDS-PAGE; self-association (oligomers through intermolecular disulfide bonds); both purified
[2] = target: Δ9N_FGF2 D28E/C78I/C96I/S137P (human) (UniProt P09038); assay: as above

| binding [1] | binding [2] | Substance |
| --- | --- | --- |
| no binding (tested: 0.5 mg/mL) |  | Δ9N_FGF2 D28E/C78L/C96I/S137P (from UniProt P09038-2 10-155) (ligand) |
|  | no binding (tested: 0.5 mg/mL) | Δ9N_FGF2 D28E/C78I/C96I/S137P (from UniProt P09038-2 10-155) (ligand) |
